Data reported in article PMC5437280.
No constants are given. Whether binding was seen depends on the method and setting. For part of these data: Binding seen in cells or lysates may run through a third protein. Some binding calls cover weakened binding; strength is not graded here. Tags and fused reporters may be left off the sequences shown.

Chains of the proteins cited; added tags and fusions are not shown.
UniProt P14713: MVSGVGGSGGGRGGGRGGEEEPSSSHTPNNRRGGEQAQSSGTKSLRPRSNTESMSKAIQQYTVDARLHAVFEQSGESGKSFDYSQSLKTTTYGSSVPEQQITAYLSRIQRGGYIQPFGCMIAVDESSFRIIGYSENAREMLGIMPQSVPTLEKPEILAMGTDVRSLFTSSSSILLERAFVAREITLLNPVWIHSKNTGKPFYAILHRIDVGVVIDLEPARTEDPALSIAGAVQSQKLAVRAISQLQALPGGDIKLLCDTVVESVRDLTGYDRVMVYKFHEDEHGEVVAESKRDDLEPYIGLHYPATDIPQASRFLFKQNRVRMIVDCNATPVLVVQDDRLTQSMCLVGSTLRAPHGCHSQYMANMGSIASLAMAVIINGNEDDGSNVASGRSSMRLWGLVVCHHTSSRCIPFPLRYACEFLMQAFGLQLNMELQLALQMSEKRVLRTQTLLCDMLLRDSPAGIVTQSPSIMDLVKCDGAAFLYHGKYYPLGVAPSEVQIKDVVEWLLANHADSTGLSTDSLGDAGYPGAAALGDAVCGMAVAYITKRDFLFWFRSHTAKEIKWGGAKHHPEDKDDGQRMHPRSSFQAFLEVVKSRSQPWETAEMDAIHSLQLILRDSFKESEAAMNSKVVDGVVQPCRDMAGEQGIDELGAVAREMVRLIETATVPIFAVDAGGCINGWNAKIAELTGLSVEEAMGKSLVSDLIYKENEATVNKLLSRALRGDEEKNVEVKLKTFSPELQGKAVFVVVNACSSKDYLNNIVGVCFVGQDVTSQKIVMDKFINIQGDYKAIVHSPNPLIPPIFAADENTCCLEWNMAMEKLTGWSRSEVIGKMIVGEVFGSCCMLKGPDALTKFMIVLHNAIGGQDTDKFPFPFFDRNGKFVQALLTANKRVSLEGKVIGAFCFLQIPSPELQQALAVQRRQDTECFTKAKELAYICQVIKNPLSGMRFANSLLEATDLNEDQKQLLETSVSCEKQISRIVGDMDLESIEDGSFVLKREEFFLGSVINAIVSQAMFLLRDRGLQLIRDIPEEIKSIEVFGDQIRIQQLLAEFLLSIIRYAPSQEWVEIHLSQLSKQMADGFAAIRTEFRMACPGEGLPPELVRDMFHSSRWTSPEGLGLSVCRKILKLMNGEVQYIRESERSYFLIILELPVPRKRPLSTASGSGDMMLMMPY

Columns and labels:
[1] = biological target: T1, GST:PIF3-WT:MYC (Arabidopsis) (UniProt O80536); test: pull-down; in vitro pull-down with the PIF3 of the kinase assay as bait and phyB:FLAG (Pfr) as prey; blot with MYC and FLAG antibodies; both purified
T1 sequence: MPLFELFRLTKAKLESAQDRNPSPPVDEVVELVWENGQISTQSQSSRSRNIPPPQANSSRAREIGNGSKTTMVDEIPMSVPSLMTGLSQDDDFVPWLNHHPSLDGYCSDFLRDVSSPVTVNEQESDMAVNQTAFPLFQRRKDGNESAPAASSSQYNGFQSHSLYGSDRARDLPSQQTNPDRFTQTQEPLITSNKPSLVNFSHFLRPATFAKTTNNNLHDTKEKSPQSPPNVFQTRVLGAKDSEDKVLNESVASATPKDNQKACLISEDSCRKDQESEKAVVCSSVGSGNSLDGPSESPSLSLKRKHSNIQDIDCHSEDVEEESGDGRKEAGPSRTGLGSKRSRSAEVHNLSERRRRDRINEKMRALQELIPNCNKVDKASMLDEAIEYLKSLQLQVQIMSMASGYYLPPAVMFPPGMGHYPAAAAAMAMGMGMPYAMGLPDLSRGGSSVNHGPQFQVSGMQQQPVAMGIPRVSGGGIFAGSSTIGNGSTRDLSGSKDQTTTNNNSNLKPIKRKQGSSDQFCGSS

[2] = biological target: T2, PIF3:MYC (in vitro synthesized) (Arabidopsis) (UniProt O80536); test: co-IP; in vitro co-IP with phyB, PIF3 and PPK1 together (Supplementary Fig. 3d); bait not given
T2 sequence: T1 sequence

[3] = biological target: T2, PIF3:MYC (in vitro synthesized) (Arabidopsis); test: co-IP; proteins synthesized in HeLa cell lysate; MYC-tagged bait captured with anti-MYC; phyB:FLAG prey irradiated with R light only (Pfr) before immunoprecipitation

Measured: binding

phyB:FLAG (from UniProt P14713 1-1172) (receptor)
binds: [1] | [2] | [3]
